Data taken from the supplement of paper PMC10849652.
Some of the results follow.

The chains behind the UniProt entries cited, without tags or fusion partners. Where a name states a change or a piece, a line headed by the entry shows the natural chain unless it says otherwise.
UniProt Q13496: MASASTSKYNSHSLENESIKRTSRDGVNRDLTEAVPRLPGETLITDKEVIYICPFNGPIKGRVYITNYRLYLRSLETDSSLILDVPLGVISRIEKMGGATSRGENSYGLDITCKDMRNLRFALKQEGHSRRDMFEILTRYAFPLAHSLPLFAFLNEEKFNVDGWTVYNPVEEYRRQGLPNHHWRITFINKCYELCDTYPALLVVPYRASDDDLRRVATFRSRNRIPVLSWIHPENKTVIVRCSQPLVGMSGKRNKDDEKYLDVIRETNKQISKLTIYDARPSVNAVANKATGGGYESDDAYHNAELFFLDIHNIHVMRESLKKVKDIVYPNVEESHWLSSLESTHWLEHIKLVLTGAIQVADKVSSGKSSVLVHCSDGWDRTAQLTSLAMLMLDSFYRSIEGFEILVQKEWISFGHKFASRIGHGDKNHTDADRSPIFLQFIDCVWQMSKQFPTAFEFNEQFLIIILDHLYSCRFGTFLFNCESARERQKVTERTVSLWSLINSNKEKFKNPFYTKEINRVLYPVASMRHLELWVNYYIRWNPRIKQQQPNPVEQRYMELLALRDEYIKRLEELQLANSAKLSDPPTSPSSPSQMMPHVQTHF
UniProt Q9HD23: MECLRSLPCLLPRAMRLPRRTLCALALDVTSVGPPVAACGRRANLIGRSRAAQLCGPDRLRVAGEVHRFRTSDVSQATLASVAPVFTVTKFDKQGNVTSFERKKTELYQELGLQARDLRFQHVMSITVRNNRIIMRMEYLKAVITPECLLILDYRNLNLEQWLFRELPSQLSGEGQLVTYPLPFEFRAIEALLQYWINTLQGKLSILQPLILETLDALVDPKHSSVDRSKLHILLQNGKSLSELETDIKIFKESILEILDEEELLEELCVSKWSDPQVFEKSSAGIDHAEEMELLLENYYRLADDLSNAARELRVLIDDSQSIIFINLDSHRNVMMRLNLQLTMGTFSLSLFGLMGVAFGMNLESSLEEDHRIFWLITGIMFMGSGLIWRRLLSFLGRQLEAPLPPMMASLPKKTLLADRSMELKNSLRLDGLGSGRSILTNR
UniProt Q9H2K0, whole entry, looked up: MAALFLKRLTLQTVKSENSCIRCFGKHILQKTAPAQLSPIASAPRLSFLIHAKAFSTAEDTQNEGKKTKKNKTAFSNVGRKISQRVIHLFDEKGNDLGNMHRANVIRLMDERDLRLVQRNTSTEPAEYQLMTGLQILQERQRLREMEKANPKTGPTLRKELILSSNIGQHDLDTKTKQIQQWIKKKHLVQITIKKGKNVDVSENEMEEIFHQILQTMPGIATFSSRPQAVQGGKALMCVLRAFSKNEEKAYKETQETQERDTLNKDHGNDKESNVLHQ
UniProt P43246, whole entry, looked up: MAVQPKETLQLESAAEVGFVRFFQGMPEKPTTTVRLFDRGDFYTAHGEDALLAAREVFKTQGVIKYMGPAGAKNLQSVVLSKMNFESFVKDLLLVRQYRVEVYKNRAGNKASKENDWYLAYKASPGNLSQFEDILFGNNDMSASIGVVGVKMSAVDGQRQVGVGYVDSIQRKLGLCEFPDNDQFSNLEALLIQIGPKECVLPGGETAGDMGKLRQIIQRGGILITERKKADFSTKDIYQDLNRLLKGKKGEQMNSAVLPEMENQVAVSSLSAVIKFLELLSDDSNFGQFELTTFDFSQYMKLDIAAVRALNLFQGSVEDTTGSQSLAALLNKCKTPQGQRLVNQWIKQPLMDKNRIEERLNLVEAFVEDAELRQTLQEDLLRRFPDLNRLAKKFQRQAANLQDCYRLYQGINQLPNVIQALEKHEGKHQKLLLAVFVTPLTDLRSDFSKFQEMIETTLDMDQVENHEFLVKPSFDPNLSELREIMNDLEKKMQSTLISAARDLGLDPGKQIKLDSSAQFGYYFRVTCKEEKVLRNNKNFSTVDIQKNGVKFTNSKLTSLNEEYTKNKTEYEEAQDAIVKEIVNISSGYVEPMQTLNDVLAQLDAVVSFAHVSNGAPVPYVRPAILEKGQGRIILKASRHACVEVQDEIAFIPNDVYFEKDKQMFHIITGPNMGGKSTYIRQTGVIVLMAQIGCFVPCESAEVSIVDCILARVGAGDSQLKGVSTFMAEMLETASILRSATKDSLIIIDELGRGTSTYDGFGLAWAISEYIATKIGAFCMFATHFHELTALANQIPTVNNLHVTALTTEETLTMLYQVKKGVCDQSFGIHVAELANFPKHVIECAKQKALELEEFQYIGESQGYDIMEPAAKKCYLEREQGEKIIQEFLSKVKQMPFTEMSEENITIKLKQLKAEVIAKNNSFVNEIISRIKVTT
UniProt Q9BTC8: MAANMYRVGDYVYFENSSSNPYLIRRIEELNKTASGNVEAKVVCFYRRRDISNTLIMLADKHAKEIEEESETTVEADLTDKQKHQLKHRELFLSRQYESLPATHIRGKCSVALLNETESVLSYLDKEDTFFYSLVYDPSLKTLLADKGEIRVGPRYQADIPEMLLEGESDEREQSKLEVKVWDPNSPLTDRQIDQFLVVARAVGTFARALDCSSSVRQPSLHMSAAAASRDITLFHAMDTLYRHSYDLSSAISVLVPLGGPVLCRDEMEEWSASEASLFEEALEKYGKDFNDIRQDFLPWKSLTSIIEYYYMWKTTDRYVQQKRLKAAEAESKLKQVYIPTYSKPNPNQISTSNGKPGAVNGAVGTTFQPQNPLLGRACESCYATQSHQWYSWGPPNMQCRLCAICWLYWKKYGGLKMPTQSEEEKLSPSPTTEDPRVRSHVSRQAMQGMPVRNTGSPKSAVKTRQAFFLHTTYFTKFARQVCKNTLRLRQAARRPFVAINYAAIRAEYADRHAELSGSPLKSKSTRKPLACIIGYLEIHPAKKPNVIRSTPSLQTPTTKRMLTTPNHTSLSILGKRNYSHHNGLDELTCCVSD
UniProt Q9NZJ7, whole entry, looked up: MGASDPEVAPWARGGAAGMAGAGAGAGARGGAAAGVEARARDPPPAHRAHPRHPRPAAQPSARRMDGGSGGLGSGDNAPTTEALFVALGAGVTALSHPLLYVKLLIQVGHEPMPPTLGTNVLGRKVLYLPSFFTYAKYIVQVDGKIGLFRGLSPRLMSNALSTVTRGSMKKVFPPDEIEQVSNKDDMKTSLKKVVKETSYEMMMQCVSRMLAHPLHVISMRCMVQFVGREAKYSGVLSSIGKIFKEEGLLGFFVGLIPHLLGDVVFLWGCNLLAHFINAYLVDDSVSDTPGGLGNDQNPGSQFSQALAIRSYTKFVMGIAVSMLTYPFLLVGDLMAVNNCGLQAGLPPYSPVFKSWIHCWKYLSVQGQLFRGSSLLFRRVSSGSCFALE
UniProt Q969V6: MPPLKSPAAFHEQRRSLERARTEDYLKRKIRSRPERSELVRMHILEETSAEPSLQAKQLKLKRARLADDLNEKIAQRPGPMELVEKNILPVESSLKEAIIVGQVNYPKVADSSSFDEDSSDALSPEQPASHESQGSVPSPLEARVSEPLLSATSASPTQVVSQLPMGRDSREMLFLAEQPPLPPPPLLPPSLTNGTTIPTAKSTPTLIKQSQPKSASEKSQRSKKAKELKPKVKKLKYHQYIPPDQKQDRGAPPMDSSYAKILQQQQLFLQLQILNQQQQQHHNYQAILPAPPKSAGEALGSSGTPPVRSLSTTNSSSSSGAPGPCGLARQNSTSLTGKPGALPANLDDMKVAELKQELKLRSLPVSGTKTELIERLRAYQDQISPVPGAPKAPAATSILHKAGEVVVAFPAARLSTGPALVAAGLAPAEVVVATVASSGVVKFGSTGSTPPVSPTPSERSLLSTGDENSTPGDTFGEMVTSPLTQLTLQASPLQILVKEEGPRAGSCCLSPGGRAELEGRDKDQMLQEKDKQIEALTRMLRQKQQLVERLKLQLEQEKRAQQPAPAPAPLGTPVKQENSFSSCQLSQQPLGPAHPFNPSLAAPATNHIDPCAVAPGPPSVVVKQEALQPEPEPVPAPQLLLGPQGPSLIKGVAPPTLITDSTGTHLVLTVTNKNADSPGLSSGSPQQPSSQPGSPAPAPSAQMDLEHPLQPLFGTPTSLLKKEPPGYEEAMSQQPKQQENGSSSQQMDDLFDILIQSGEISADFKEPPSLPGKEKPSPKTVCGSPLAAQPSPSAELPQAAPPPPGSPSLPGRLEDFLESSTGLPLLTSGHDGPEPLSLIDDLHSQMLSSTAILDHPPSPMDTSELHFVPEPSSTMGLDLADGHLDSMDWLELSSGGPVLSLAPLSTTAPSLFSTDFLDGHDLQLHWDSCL
UniProt Q9BUK6: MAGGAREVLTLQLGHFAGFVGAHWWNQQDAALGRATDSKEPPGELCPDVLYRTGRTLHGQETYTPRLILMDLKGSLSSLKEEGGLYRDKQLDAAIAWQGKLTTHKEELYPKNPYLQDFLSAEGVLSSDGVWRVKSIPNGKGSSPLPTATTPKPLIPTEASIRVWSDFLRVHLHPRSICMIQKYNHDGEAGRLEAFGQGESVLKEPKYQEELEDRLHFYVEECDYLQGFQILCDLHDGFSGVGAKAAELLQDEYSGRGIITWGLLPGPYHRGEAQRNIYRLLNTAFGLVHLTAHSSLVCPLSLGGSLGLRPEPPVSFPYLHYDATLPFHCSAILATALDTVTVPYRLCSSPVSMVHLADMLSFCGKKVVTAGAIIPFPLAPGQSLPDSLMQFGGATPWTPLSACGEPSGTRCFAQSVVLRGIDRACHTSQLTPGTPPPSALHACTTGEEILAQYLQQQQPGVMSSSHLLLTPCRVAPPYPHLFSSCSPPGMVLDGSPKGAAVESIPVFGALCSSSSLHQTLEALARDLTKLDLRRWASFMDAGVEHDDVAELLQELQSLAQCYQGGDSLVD
UniProt P49914: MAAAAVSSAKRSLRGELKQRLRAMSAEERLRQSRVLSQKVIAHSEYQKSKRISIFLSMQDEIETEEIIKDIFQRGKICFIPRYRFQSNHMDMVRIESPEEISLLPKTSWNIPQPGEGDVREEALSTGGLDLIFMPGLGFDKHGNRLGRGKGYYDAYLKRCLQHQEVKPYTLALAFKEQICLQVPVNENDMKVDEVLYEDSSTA
UniProt P82909: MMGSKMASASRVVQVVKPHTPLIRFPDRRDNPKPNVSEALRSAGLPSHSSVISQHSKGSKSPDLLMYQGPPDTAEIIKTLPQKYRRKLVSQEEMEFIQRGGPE
UniProt Q13615: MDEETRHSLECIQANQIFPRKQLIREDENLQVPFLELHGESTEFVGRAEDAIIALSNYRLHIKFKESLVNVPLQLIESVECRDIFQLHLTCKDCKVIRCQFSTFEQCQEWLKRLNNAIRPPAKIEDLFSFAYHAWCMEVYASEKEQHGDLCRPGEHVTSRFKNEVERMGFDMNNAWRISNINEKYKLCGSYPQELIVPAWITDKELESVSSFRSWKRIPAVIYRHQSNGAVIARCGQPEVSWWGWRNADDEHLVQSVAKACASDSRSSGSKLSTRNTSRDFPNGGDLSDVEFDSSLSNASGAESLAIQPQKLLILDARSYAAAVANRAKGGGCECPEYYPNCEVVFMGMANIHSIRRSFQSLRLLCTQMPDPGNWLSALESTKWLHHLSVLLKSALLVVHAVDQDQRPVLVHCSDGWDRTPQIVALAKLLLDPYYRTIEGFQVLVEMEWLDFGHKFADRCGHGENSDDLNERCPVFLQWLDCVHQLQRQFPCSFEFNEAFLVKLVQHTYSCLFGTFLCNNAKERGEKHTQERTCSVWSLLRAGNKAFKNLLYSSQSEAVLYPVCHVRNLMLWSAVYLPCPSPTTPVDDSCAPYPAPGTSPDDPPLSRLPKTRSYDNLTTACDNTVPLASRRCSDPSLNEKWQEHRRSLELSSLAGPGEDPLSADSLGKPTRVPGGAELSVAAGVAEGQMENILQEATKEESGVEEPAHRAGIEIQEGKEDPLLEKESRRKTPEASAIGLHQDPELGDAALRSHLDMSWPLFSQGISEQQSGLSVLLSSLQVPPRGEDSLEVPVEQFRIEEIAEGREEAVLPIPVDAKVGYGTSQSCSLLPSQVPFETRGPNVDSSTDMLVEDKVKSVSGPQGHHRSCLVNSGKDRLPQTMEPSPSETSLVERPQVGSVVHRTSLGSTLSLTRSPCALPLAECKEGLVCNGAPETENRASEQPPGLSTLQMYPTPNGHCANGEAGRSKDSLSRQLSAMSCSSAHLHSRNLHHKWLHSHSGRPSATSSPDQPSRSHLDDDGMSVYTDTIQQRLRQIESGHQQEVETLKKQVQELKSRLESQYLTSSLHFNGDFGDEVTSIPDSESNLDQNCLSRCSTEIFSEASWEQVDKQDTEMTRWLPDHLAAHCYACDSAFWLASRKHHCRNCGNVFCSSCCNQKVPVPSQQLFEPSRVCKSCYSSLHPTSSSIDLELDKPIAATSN
UniProt Q15390: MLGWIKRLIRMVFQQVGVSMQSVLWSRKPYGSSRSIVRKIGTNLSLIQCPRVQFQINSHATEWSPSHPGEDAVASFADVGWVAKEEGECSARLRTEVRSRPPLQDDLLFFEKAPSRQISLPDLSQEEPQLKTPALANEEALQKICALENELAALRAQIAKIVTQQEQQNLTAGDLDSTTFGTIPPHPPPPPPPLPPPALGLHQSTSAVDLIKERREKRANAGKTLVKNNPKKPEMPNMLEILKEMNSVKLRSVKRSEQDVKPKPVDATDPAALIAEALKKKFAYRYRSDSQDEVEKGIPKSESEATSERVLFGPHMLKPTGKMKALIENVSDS

Tests used:
Experiment in all cases: log2 fold change, soluble protein after heating vs DMSO (PISA); higher = thermal stabilisation; K562 lysate, 10 uM; active = over 0.2 and 3.5 SD of the protein, either way, in both replicates (recomputed)
[1] = compound: C1=CC=C(C=C1)[C@H](COC2=CC3=C(C=C2)NC(=O)N3)NC(=O)C4=CC=CN(C4=O)CC5=CC(=C(C=C5)F)F
In short: (§1)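 K562 pellets were dounce-homogenised in PBS pH 7.4 with 1 mM MgCl2, and the crude extract at 1 mg/mL protein was treated with 10 μM compound for 30 min. Aliquots were heated for 3 min across 48°C-58°C, pooled, and brought to 0.5% NP-40 at 4°C; soluble protein was the supernatant after 21,000xg for 90 min. Soluble protein was quantified by TMTpro 16plex LC-MS/MS with channel sums equalised, and reported as log2 fold change in thermal stability against DMSO controls, with values from duplicates.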

[2] = compound: CC1=C(SC2=C1C(=N[C@H](C3=NN=C(N32)C)CC(=O)N)C4=CC=C(C=C4)Cl)C
In short: as §1

[3] = compound: CC1=C2C(=CC=C1)N=C(N(C2=O)C3=CC=CC=C3C)CN4C=NC5=C(N=CN=C54)N
In short: as §1

[4] = compound: Cc1sc2c(c1C)C(c1ccc(Cl)cc1)=N[C@@H](CC(=O)OC(C)(C)C)c1nnc(C)n1-2
In short: as §1

[5] = compound: c1ccc([C@@H]2C[C@H]2NC2CCNCC2)cc1
In short: as §1

Measured: log2 fold change

MTMR12 (UniProt Q9C0I1)
inactive: [1] 0.02 | [2] 0.03 | [3] 0.004 | [4] -0.029 | [5] -0.017

MTSS2 (UniProt Q765P7)
inactive: [1] 0.023 | [2] 0.01 | [3] -0.022 | [4] -0.035 | [5] 0.002

MTDH (UniProt E5RJU9)
inactive: [1] 0.232 | [2] -0.001 | [3] -0.062 | [4] 0.053 | [5] -0.096

MRPL23 (UniProt Q16540)
inactive: [1] 0.098 | [2] 0.004 | [3] 0.005 | [4] 0.05 | [5] 0.019

MSL1 (UniProt Q68DK7)
inactive: [1] -0.05 | [2] 0.04 | [3] 0.012 | [4] -0.022 | [5] -0.046

MTM1 (UniProt Q13496)
inactive: [1] 0.006 | [2] -0.028 | [3] 0.034 | [4] -0.009 | [5] 0.011

MRPL9 (UniProt Q9BYD2)
inactive: [1] 0.011 | [2] 0.036 | [3] 0.035 | [4] -0.097 | [5] 0.059

MTA1 (UniProt Q13330)
inactive: [1] 0.005 | [2] -0.01 | [3] 0.01 | [4] 0.055 | [5] 0.012

MTERF3 (UniProt Q96E29)
inactive: [1] -0.024 | [2] 0.001 | [3] 0.08 | [4] -0.04 | [5] 0.111

MRPS34 (UniProt P82930)
inactive: [1] -0.001 | [2] 0.043 | [3] -0.03 | [4] 0.092 | [5] 0.08

MRS2 (UniProt Q9HD23)
inactive: [1] 0.05 | [2] -0.012 | [3] -0.003 | [4] 0.005 | [5] 0.01

MTIF2 (UniProt P46199)
inactive: [1] 0.028 | [2] 0.04 | [3] 0.035 | [4] -0.025 | [5] 0.03

MRPL43 isoform 4 (UniProt Q8N983)
inactive: [1] -0.009 | [2] -0.022 | [3] 0.06 | [4] 0.023 | [5] -0.065

MRPL4 (UniProt Q9BYD3)
inactive: [1] 0.027 | [2] 0.026 | [3] 0.019 | [4] 0.006 | [5] 0.082

MTIF3 (UniProt Q9H2K0)
inactive: [1] -0.03 | [2] -0.048 | [3] 0.099 | [4] 0.053 | [5] 0.035

MRPS24 (UniProt Q96EL2)
inactive: [1] -0.009 | [2] 0.088 | [3] -0.123 | [4] -0.028 | [5] 0.075

MSH2 (UniProt P43246)
inactive: [1] 0.018 | [2] -0.006 | [3] 0.028 | [4] 0.001 | [5] 0.065

MTO1 isoform 4 (UniProt Q9Y2Z2)
inactive: [1] -0.24 | [2] 0.04 | [3] 0.031 | [4] 0.063 | [5] 0.019

MRPS28 (UniProt Q9Y2Q9)
inactive: [1] 0.019 | [2] -0.002 | [3] 0.001 | [4] 0.025 | [5] 0.031

MT-CYB (UniProt P00156)
inactive: [1] 0.062 | [2] -0.091 | [3] -0.052 | [4] -0.132 | [5] -0.468

MRPS16 (UniProt Q9Y3D3)
inactive: [1] -0.017 | [2] 0.027 | [3] 0.014 | [4] 0.04 | [5] 0.041

MRPS21 (UniProt P82921)
inactive: [1] -0.128 | [2] 0.12 | [3] 0.163 | [4] -0.06 | [5] -0.006

MT-ATP6 (UniProt P00846)
inactive: [1] 0.005 | [2] -0.026 | [3] -0.072 | [4] -0.263 | [5] -0.037

MTA3 (UniProt Q9BTC8)
inactive: [1] -0.006 | [2] -0.047 | [3] 0.002 | [4] 0.014 | [5] -0.001

MRPL35 (UniProt Q9NZE8)
inactive: [1] -0.028 | [2] -0.002 | [3] 0.331 | [4] -0.04 | [5] 0

MRPS18A isoform 2 (UniProt Q9NVS2)
inactive: [1] 0.005 | [2] -0.101 | [3] 0.054 | [4] 0.066 | [5] 0.2

MTCH1 (UniProt Q9NZJ7)
inactive: [1] 0.085 | [2] 0.042 | [3] -0.051 | [4] -0.037 | [5] -0.068

MRPL45 (UniProt Q9BRJ2)
inactive: [1] -0.048 | [2] 0.033 | [3] -0.03 | [4] 0.05 | [5] 0.019

Random excerpt: 3 records from the list, in no set order.
MRPS18A isoform 2 (UniProt Q9NVS2)
inactive: [1] 0.005 | [2] -0.101 | [3] 0.054 | [4] 0.066 | [5] 0.2

MTCH1 (UniProt Q9NZJ7)
inactive: [1] 0.085 | [2] 0.042 | [3] -0.051 | [4] -0.037 | [5] -0.068

MRPL45 (UniProt Q9BRJ2)
inactive: [1] -0.048 | [2] 0.033 | [3] -0.03 | [4] 0.05 | [5] 0.019

Following part.

MSN (UniProt P26038)
inactive: [1] 0.003 | [2] -0.005 | [3] 0.01 | [4] -0.005 | [5] 0.008

MRTFA (UniProt Q969V6)
inactive: [1] 0.128 | [2] -0.183 | [3] 0.215 | [4] 0.1 | [5] 0.014

MSTO1 (UniProt Q9BUK6)
inactive: [1] -0.041 | [2] 0.01 | [3] 0.01 | [4] -0.068 | [5] 0.056

MRPL42 (UniProt Q9Y6G3)
inactive: [1] 0.007 | [2] -0.011 | [3] -0.081 | [4] 0.028 | [5] -0.036

MRPS7 (UniProt Q9Y2R9)
inactive: [1] -0.106 | [2] 0.064 | [3] 0.037 | [4] 0.077 | [5] 0.032

MTHFS (UniProt P49914)
inactive: [1] 0.064 | [2] 0.008 | [3] 0.011 | [4] -0.04 | [5] -0.01

MRPL32 (UniProt Q9BYC8)
inactive: [1] 0.031 | [2] 0.008 | [3] -0.044 | [4] -0.063 | [5] -0.054

MRPS36 (UniProt P82909)
inactive: [1] 0.091 | [2] -0.033 | [3] -0.071 | [4] 0.234 | [5] -0.076

MTMR3 (UniProt Q13615)
inactive: [1] 0.012 | [2] -0.003 | [3] 0.015 | [4] -0.033 | [5] -0.06

MRPL40 (UniProt Q9NQ50)
inactive: [1] -0.013 | [2] 0.018 | [3] -0.082 | [4] -0.085 | [5] 0.032

MRPL49 (UniProt Q13405)
inactive: [1] -0.154 | [2] 0.019 | [3] 0.072 | [4] 0.047 | [5] 0

MTHFD1L (UniProt B7ZM99)
inactive: [1] -0.039 | [2] 0.025 | [3] 0.06 | [4] 0.025 | [5] 0.049

MRPL58 (UniProt Q14197)
inactive: [1] 0.011 | [2] 0.029 | [3] 0.075 | [4] -0.002 | [5] 0.081

MRPL33 (UniProt O75394)
inactive: [1] -0.085 | [2] -0.029 | [3] -0.061 | [4] 0.085 | [5] -0.001

MRPS5 (UniProt P82675)
inactive: [1] 0.037 | [2] -0.047 | [3] 0.099 | [4] 0.069 | [5] 0.034

MTMR1 (UniProt Q13613)
inactive: [1] 0.012 | [2] -0.009 | [3] 0.022 | [4] 0.077 | [5] 0.03

MRPS22 (UniProt P82650)
inactive: [1] -0.011 | [2] 0.067 | [3] 0.078 | [4] 0.057 | [5] 0.035

MRPS12 (UniProt O15235)
inactive: [1] 0 | [2] 0.019 | [3] 0.053 | [4] 0.039 | [5] 0.026

MTMR9 (UniProt Q96QG7)
inactive: [1] 0.073 | [2] -0.101 | [3] 0.06 | [4] 0.028 | [5] 0.053

MTFR1 (UniProt Q15390)
inactive: [1] 0.03 | [2] -0.003 | [3] -0.137 | [4] -0.066 | [5] -0.044

MRPS30 (UniProt Q9NP92)
inactive: [1] -0.106 | [2] 0.029 | [3] 0.102 | [4] 0.006 | [5] -0.115

MRPS26 (UniProt Q9BYN8)
inactive: [1] 0.028 | [2] -0.026 | [3] 0.005 | [4] 0.016 | [5] 0.038

MRRF (UniProt Q96E11)
inactive: [1] -0.006 | [2] -0.041 | [3] 0.011 | [4] 0.007 | [5] 0.046

MTHFD2L (UniProt Q9H903)
inactive: [1] 0.309 | [2] -0.113 | [5] 0.174

MSH4 (UniProt O15457)
inactive: [3] 0.128 | [5] 0.454

MRPS14 (UniProt O60783)
inactive: [1] 0.025 | [2] 0.067 | [3] -0.049 | [5] 0.119
